No constants are given. Whether binding was seen depends on the method and setting. In cells and extracts the contact can be indirect. Binding calls can cover weak binding; strength is not graded here. Tags and fused reporters may be left off the sequences shown.
Biological target: Flag-Tmbim1 (transmembrane BAX inhibitor motif containing 1)
Test: co-IP; BRL cells infected with Flag-Tmbim1 and HA-Rab9a lentiviruses for 48 h; Pierce Classic IP Kit; Flag precipitation, immunoblot with anti-Flag and anti-HA; IgG as negative control

binding: binds
B1: HA-Rab9a (protein, UniProt Q99P75 1-201)
chain: MAGKSSLFKIILLGDGGVGKSSLMNRYVTNKFDSQLFHTIGVEFLNKDLEVDGHFVTMQIWDTAGQERFRSLRTPFYRGSDCCLLTFSVDDSQSFQNLSNWKKEFIYYADVKEPESFPFVILGNKTDIKERQVSTEEAQAWCKDNGDYPYFETSAKDSTNVAAAFEEAVRRILATEDRSDHLIQTDTVNLHRKPKPNSSCC
